In patent US20030171397A1 (priority 2003, published 2003):
Some results were stated once for a whole list of compounds, not compound by compound. At least one compound was matched to its structure with a doubt left.

Test system: breast tumor cell lines
Assay: Cytotoxicity (LDH release) across breast tumor cell lines
Assay type: cell-based, human
Conditions: appropriate concentration and duration; by LDH release, TUNEL assay or Annexin V binding
Procedure: Cells were seeded at 100,000 cells/well.

For `CN1CC[C@]2(c3cccc(O)c3)CC(=O)/C(=C/c3ccccc3)[C@H]1C2` [CB-64D, (+)-1R,5R-E-8-benzylidene-5-(3-hydroxyphenyl)-2-methylmorphan-7-one], the cell killing was “up to 100%”.
